This assay has as its target T1, SALM5-Ecto-pDis (not stated (mouse and human SALM5 are named for other constructs)) (UniProt Q8BXA0).
T1 sequence: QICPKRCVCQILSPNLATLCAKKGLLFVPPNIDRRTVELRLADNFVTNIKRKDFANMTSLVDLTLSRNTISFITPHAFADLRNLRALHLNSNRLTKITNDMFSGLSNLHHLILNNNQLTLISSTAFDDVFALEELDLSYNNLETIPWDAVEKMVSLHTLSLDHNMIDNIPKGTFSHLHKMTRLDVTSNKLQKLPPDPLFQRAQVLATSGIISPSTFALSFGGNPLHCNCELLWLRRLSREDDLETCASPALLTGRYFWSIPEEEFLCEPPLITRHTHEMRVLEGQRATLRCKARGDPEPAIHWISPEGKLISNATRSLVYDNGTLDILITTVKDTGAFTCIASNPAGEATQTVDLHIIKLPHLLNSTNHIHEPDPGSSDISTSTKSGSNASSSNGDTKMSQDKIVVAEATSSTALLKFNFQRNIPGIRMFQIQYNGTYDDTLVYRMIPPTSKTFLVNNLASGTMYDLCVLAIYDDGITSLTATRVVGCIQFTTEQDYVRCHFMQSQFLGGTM
In words: cell aggregation assay; two groups of transfected L cells (EGFP + SALM construct; DsRed + LAR-RPTP construct) trypsinized, resuspended in DMEM, mixed and rotated at room temperature for 2 hours; average aggregate size.

Amino acid sequences for entries named in this document (tags omitted). A change or cut given only in a name is not applied to a line headed by its entry.
UniProt P23468: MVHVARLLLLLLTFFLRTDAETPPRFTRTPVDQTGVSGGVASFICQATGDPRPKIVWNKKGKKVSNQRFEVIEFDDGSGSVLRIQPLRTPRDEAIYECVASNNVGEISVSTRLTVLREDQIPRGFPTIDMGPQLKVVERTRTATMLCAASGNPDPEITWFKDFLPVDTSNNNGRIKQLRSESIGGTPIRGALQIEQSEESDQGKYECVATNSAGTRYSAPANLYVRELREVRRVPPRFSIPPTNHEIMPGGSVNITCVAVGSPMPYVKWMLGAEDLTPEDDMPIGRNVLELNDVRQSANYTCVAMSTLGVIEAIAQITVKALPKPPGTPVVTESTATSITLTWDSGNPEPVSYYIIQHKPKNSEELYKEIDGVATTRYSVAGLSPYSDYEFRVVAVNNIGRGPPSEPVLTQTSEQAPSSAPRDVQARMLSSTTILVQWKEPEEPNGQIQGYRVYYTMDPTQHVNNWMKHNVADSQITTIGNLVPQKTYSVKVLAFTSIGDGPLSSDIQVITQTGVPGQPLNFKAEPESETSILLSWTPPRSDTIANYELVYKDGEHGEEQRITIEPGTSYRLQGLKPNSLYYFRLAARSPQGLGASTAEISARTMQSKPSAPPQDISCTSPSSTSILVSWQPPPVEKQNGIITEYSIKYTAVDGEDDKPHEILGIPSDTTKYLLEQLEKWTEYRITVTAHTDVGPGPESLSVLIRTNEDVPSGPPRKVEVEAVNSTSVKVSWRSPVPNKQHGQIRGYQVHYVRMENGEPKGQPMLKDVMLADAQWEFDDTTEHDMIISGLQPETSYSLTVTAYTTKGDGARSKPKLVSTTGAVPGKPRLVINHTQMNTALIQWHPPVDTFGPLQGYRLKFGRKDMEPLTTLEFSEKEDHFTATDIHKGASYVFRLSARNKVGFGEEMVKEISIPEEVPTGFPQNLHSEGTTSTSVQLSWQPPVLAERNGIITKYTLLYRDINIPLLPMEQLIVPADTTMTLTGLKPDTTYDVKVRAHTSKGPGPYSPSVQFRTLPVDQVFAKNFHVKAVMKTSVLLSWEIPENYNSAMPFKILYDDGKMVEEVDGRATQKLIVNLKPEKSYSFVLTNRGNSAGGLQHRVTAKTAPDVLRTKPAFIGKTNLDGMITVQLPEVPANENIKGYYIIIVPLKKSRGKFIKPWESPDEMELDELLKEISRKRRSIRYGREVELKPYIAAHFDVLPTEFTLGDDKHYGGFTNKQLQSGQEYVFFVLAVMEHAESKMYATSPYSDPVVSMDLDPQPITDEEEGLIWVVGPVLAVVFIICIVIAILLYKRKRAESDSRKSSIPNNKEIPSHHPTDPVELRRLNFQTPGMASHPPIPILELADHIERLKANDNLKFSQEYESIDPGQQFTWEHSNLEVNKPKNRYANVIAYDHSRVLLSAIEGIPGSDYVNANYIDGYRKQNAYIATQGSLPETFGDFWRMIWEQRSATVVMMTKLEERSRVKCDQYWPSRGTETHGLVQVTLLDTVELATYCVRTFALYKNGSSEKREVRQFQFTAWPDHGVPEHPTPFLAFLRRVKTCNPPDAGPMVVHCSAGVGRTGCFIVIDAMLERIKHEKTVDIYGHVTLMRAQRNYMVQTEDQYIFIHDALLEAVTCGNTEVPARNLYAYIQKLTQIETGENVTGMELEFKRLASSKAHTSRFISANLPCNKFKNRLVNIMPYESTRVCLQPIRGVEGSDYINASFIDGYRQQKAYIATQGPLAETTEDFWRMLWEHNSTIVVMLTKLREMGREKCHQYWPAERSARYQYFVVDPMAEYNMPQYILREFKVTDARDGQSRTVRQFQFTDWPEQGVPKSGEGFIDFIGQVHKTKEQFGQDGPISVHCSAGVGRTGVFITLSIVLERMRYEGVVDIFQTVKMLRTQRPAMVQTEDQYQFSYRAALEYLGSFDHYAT

Results are given in words; binding and its absence hold for the method and conditions named. Binding can be weak; no strength is given.

As for “PTPδ-Ig (aa 21–309) in pDisplay (from UniProt P23468) (domain or fragment)”, the binding entry is recorded as “binds”.
For the substance “PTPδ-Ig A^−B^− in pDisplay (human) (domain or fragment)”, the binding result is “binds”.
The value for “PTPδ-Ig A^+B^− in pDisplay (human) (domain or fragment)” was “binds”.

The values are drawn from article PMC4881023, “SALM5 trans-synaptically interacts with LAR-RPTPs in a splicing-dependent manner to regulate synapse development” (Scientific Reports, 2016).
